Results: PubChem BioAssay AID588497 (NMMLSC, 2011)
Among all 360,000 compounds or so, about 780 (0.22%) were called active. Inconclusive means that the source gave no clear call. Such entries were picked first, then a sample of the others. No stated cut-off is given here; in the data, active means inhibition above about 35% (passing the limit was not always enough); inconclusive means no clear call, values can overlap the other calls.

System: Botulinum neurotoxin type F light chain protease (Clostridium botulinum)
Assay: BoNT/F light chain protease inhibitors, primary screen, biochemical, flow cytometry, MLPCN library (AID 588497); further: plate controls were buffer without enzyme for full effect and enzyme alone for no effect
Settings: Multiplex microsphere protease cleavage assay, at 10 µM, active compounds read high

Compound | inhibition
CCOc1ccc(C(=O)NC(C)CCc2ccccc2)cc1 (stereo unspecified) | inactive: -7.6%
CC(C)C[C@H]1COc2cccc(N3CCSCC3)c2S(=O)(=O)N1 | inactive: -2.8%
O=C(Nc1nccs1)C1CCCN1S(=O)(=O)c1ccc(Cl)cc1 (stereo unspecified) | inactive: -2.2%
COc1ccc(/C=C2\SC(=S)N(CCC(=O)Nc3cccc(C(=O)O)c3)C2=O)cc1 | inconclusive: -8.9%
CC(C)(C)c1ccc(/C=C2\Oc3cc(O)ccc3C2=O)cc1 | inconclusive: 1.8%
Cc1sc2ncnc(N[C@@H](Cc3ccccc3)C(=O)O)c2c1C | inconclusive: 6.9%
COCCCN(C(=O)c1ccccc1F)c1nc(-c2ccc(OC)cc2)cs1 | inconclusive: -10.8%
COc1cc2nc(NC(=O)c3ccc(Cl)cc3)[nH]c(=O)c2cc1OC | inconclusive: -51.1%
CCCCCCOc1ccc(-c2ccc(C#N)cn2)cc1 | inactive: -5.7%
CC(=O)c1ccc(N2CCN(C(=O)c3cc4c(C)nc5ccccc5c4o3)CC2)cc1 | inactive: 1.2%
Cc1ccc([C@H]2C[C@H](n3cc(-c4ccc(F)cc4)nn3)[C@@H](O)CN2CC2CCCCC2)cc1 | inactive: -6.2%
Cc1nc(C(=O)NNC(=O)c2cccc(Cl)c2)c(C(F)(F)F)o1 | inconclusive: -51.7%
O=[N+]([O-])c1nn(-c2cccc(Cl)c2)n(O)c1=NCc1cccnc1 | active: 35%
O=C(Oc1ccc(-c2ccccc2)cc1)N1CCOCC1 | inactive: -1.7%
Cc1cc(=O)n2c(nc3ccccc32)[nH]1 | inactive: -1.5%
Cc1ccc(C(=O)CN2C(=O)c3ccccc3S2(=O)=O)cc1 | inconclusive: -4%
CC1(C)C/C(=N/Nc2ccc([N+](=O)[O-])cc2[N+](=O)[O-])C(C)(C)O1 | inconclusive: 11.8%
COc1cccc(-c2nn3c(-c4ccco4)nnc3s2)c1 | inactive: -7.1%
O=C(Cc1ccc(Cl)cc1)Nc1ccc(Cl)cn1 | inconclusive: 12.8%
CCN(CC(=O)Nc1ccc(C(=O)OC)cc1)C1CCCCC1 | inactive: -0.4%
Cc1ccc(N2CC(C(=O)NCc3n[nH]c(=O)c4ccccc34)CC2=O)cc1C (stereo unspecified) | inconclusive: 16.2%
Cn1c(-c2cccc([N+](=O)[O-])c2)cnc1NCc1cccc(F)c1 | inconclusive: 6.5%
Cc1csc(NC(=O)CSc2nnc(NC(=O)COc3ccc(Cl)cc3)s2)n1 | inactive: -5.5%

Compound | inhibition
COc1ccccc1-c1nnc(NC(=O)c2ccc(S(=O)(=O)N3CCOCC3)cc2)o1 | inactive: -1.1%
CN(C)c1cccc(NC(=O)CCc2ccccc2)c1 | active: 74.8%
CCN1CCN(CCc2nc3cc([N+](=O)[O-])ccc3n2C)CC1 | inconclusive: -25.1%
O=C1CN(C(=O)CSc2nnc(-c3ccccc3)n2Cc2ccc3c(c2)OCO3)c2ccccc2N1 | inconclusive: -46.4%
Cc1nnc(SCC(=O)NCC(=O)Nc2ccc(F)c(F)c2F)n1Cc1ccccc1 | inactive: -6.4%
O=C(CSc1nncs1)Nc1nnc(-c2ccccc2)o1 | inactive: -0.4%
COc1ccc(S(=O)(=O)Nc2cccnc2)cc1OC | inconclusive: -8.9%
CC(NC(=O)CN(c1ccc(F)cc1)S(C)(=O)=O)c1ccccc1 (stereo unspecified) | inconclusive: -23.5%
COCCn1c(SCC(=O)N2CCCCC2)nc2ccccc2c1=O | inactive: -0.1%
COc1ccccc1NC(=O)CN1CCN(Cc2ccccc2)CC1 | inactive: -4.8%
COc1cc(/C=N/n2nnnc2N)ccc1OCC(N)=O | inconclusive: -6.6%
Cc1ccc(NC(=O)c2ccc(S(=O)(=O)NCc3ccco3)cc2)nc1 | inconclusive: -5.2%
CC(C)c1ccc(OCCCCCN2CCOCC2)cc1 | inactive: 4.7%
COc1ccc(NC(=O)C2(C)CCN2Cc2ccc3ccccc3c2)cc1OC (stereo unspecified) | inactive: 0.9%
CCN1CCN(c2ccc(S(=O)(=O)N3CCCCC3)cc2NC(=O)c2cc3ccccc3o2)CC1 | inconclusive: -24.5%
COc1ccccc1OCC(=O)NNC(=O)Nc1ccccc1 | inconclusive: 52.5%
COc1ccc(NC(=O)C2Cc3cc(S(=O)(=O)N4CCCCC4)ccc3N2C(C)=O)cc1Cl (stereo unspecified) | inconclusive: 10.5%
C=CCOc1ccc(/C=C2\SC(N3CCCCC3)=NC2=O)cc1 | inconclusive: -18%
N#Cc1ccccc1S(=O)(=O)N1CCN(C(=O)c2cn(-c3ccccc3)nc2-c2cccnc2)CC1 | inactive: -3.5%
COCCCNC(=S)N(CCO)Cc1cc2cc3c(cc2[nH]c1=O)OCO3 | inconclusive: 8.9%
O=C(COc1ccccc1F)Nc1ccc(S(=O)(=O)NCc2ccco2)cc1 | inconclusive: -10.3%
COc1ccc(CCC(=O)Nc2ccc3c(c2)OCO3)cc1 | inconclusive: -1.4%
CCC(=O)N1CCc2cc(S(=O)(=O)N3CCN(C(=O)c4ccco4)CC3)ccc21 | inconclusive: -0.2%

Reprinted from the entries so far for reference:
Compound | inhibition
COCCn1c(SCC(=O)N2CCCCC2)nc2ccccc2c1=O | inactive: -0.1%
COc1ccccc1NC(=O)CN1CCN(Cc2ccccc2)CC1 | inactive: -4.8%
COc1cc(/C=N/n2nnnc2N)ccc1OCC(N)=O | inconclusive: -6.6%
Cc1ccc(NC(=O)c2ccc(S(=O)(=O)NCc3ccco3)cc2)nc1 | inconclusive: -5.2%
CC(C)c1ccc(OCCCCCN2CCOCC2)cc1 | inactive: 4.7%
COc1ccc(NC(=O)C2(C)CCN2Cc2ccc3ccccc3c2)cc1OC (stereo unspecified) | inactive: 0.9%
CCN1CCN(c2ccc(S(=O)(=O)N3CCCCC3)cc2NC(=O)c2cc3ccccc3o2)CC1 | inconclusive: -24.5%

Remaining list, next part

Compound | inhibition
CCCCN1C(=O)C(CC(=O)NCCCCc2ccccc2)CC(C(=O)N2CCCCCC2)=C1C (stereo unspecified) | inactive: 4.2%
COc1cc(N2CCCC2)c(OC)cc1/C=C(/C#N)c1ccc(F)cc1 | active: 34.9%
Oc1ccc(Cl)cc1CNc1ccccn1 | inconclusive: -5.1%
O=C(c1cc(F)c(F)cc1Cl)N1CCCc2ccccc21 | inconclusive: 27.1%
Cc1ccc(C(C(=O)NC(C)(C)C)N(C(=O)c2csnn2)c2ccccc2F)o1 (stereo unspecified) | inconclusive: 3.7%
COc1ccc(-n2c(=S)[nH]c3sc(-c4ccccc4)cc3c2=O)c(OC)c1 | inactive: 10.9%
COC(=O)c1ccc(Cn2cc([N+](=O)[O-])cn2)cc1 | inconclusive: 8.8%
COc1cccc(C(=O)NCC2(c3ccc(OC)c(OC)c3)CCCC2)c1 | inconclusive: -50.5%
O=C(COC(=O)c1cccnc1Cl)NC1CCCc2ccccc21 (stereo unspecified) | inconclusive: 2.9%
COc1cccc(C(=O)Nc2ccc3ccccc3c2)c1 | inconclusive: -6.1%
Cc1c(Cl)cccc1NC(=O)C1C2C=CC(C2)C1C(=O)O (stereo unspecified) | inconclusive: 15.1%
CCOC(=O)C1CCN(C(=O)c2cc(C)n(C(C)(C)C)n2)CC1 | inconclusive: -33.7%
CC1(C)C(=O)Nc2ccccc2N1C(=O)COC(=O)COc1cccc(C(F)(F)F)c1 | inconclusive: -5.9%
O=C(O)c1ccc(C2(c3ccc(C(=O)O)cc3)OC(=O)c3ccccc32)cc1 | inconclusive: 26.8%
COc1ccccc1CC(=O)N1CCN(c2ccc(F)cc2)CC1 | inconclusive: 100%
Cc1cccc(N2C(=O)CC(N3CCC(c4nc5ccccc5[nH]4)CC3)C2=O)c1 (stereo unspecified) | inactive: 0.5%
NNC(=O)Cn1nc2n(c1=O)-c1ccccc1SC2 | inconclusive: 15.2%
Cc1cc(-c2nnnn2-c2cc(Cl)cc(Cl)c2)no1 | inconclusive: 38.5%
Cc1nc2ccc(C(=O)OCc3ccccc3Br)cc2nc1C | inactive: -2%
COc1cc(CN2CCCCCC2)cc(OC)c1O | inconclusive: -14.3%
C=CCNC(=O)C1COc2ccccc2O1 (stereo unspecified) | inactive: -5.1%
COc1ccccc1NC(=O)CCN1CCN(c2ccc(Cl)cc2)CC1 | inconclusive: 24.2%
CC(=O)Oc1cc(C)cc2oc(=O)cc(-c3ccccc3)c12 | inconclusive: -4.5%

Compound | inhibition
O=C1NCC(=O)N2C(c3ccccc3)c3[nH]c4ccccc4c3C[C@@H]12 (stereo partly specified) | inconclusive: -1.2%
COc1ccc(C(=O)CN2CCN(c3ncccn3)CC2)cc1 | inconclusive: -16.5%
C=CCC(O)(CC=C)CNC(=O)c1ccc(OC)c(OC2CCN(C(C)=O)CC2)c1 | inconclusive: 28.1%
CCN(c1ccccc1)c1ncnc2c1cnn2-c1ccccc1 | inactive: -4.8%
CS(=O)(=O)c1ccc(-c2sc3ccccc3c2C#CCCO)cc1 | inactive: 3.4%
Cc1cccc(NC(=O)c2cc(Cl)nc3ccccc23)n1 | inconclusive: 88.9%
CCCc1nc2sc3ccccc3c(=O)c2c(=O)n1Cc1ccccc1 | inconclusive: -0.3%
O=C(NC(c1ccc(-c2ccccc2)cc1)c1cnccn1)C1CCN(Cc2ccc3c(c2)OCO3)CC1 (stereo unspecified) | inactive: -7.2%
C/C(=N\N=C1\NC(=O)C(CC(=O)O)S1)c1ccccn1 (stereo unspecified) | inconclusive: 51.6%
Cc1onc(-c2ccccc2)c1CNS(=O)(=O)c1ccccc1 | inconclusive: 7.4%
CCCCCCc1cc2cc(-c3nnc(-c4ccccc4O)o3)c(=O)oc2cc1O | inactive: 10.9%
CC1(C(=O)NS(=O)(=O)c2cccs2)CCN1C(=O)CC1CCCC1 (stereo unspecified) | inactive: 2.7%
Cc1cccc(NS(=O)(=O)c2ccc(C)c(C(=O)NCC(c3cccs3)N(C)C)c2)c1 (stereo unspecified) | inconclusive: 8.3%
COC(=O)C(Cc1c[nH]c2ccccc12)NC(=O)c1cccs1 (stereo unspecified) | inconclusive: -25.2%
CCCCS(=O)(=O)N1CCCC(C(=O)Oc2ccccc2OC)C1 (stereo unspecified) | inconclusive: 4.1%
COc1ccc(S(=O)(=O)N2CCC(C(=O)NCCc3ccccc3)CC2)cc1 | inactive: 7.2%
COc1ccc2nc(NC(=O)c3cccs3)sc2c1 | inconclusive: -13.4%
COCCn1c(-c2ccc(OC)cc2)nc2oc3cc(OC)ccc3c(=O)c2c1=O | inactive: -4.6%
O=C(Cn1nnc(-c2cc(C(F)(F)F)cc(C(F)(F)F)c2)n1)NNC(=S)Nc1ccc(Cl)cc1 | inconclusive: 28.3%
NC(=O)C1CCN(C(=O)c2cccc3ccccc23)CC1 | inconclusive: 17%
CCN1CCN(C(c2ccc(OC)c(OC)c2)c2nnnn2C(C)(C)C)CC1 (stereo unspecified) | inconclusive: 3.6%
CCOC(=O)c1cnc2oc3ccccc3n2c1=O | inconclusive: -23.2%
